# Some entries share one result that the patent states for a list of compounds.
# B1: sht-GroEL(191-376): histidine-tagged (short histidine tail; sht) minichaperone GroEL(191-376) (protein, UniProt P0A6F5 191-376, looked up, fragment)
# chain: EGMQFDRGYLSPYFINKPETGAVELESPFILLADKKISNIREMLPVLEAVAKAGKPLLIIAEDVEGEALATLVVNTMRGIVKVAAVKAPGFGDRRKAMLQDIATLTGGTVISEEIGMELEKATLEDLGQAKRVVINKDTTTIIDGVGEEAAIQGRVAQIRQQIEEATSDYDREKLQERVAKLAGGV
# modifications: short His tag
# Tested on: AI90 (ΔgroEL::kan^R) [pBADEL] E. coli strain
# Assay: Plating ability of AI90 on GroEL depletion at 37° C.
# Assay type: cell-based
# Settings: 0.01% arabinose
# Experimental: AI90 (ΔgroEL::kan^R) [pBAD-EL] cells were transformed with the pJC vector series. Transformants were selected at 37° C. on LB supplemented with 50 μg.ml^−1 of kanamycin, 120 μg.mL^−1 of ampicillin, 25 μg.mL^−1 of chloramphenicol and 0.2% L(+)arabinose. Depletion of GroEL protein was analysed at 37° C. by plating the same quantity of AI90 [PBAD-EL+pJC vectors] cells on LB plates containing 1% D(+)glucose or various amount of arabinose.
# Each experiment was performed in triplicate. Plasmids carrying no groE genes or encoding the GroE proteins were used as negative or positive controls, respectively.
molecule,measurement,value
B1,colony forming ability relative to the number produced in the presence of 0.2% arabinose,< 5%

# From US20020193564A1, “Oligomeric chaperone proteins” (priority 1999, published 2002)
